# Values joined by “and” are separate entries in the source; they are usually repeats but may differ in a detail not shown here. Identical values can stand only once. Out of some 320,000 compounds screened, about 22,000 (6.9%) were called active. The inconclusive results got no clear call from the source; some entries with a clear call stand among them for comparison. Calls follow the shape of the dose curve; as a rule, active = well fitted inhibition curve with a large enough effect; inconclusive = small, poorly fitted or top-dose-only effect, or another doubt; inactive = no such curve, though single readings can be large or run the other way. Potencies beside an inconclusive call are fits to weak or partial responses and may not hold up.
# Experiment: Primary qHTS for delayed death inhibitors of the malarial parasite plastid, 96 hour incubation
# Conditions: P. falciparum luciferase reporter growth; series mostly up to 28.7 µM
# Procedure, shortened: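 Two-generation exposure (96 h) targets delayed-death phenotype. Reporter parasites carrying integrated firefly luciferase, in red cells at 2% hematocrit and 0.05% parasitemia final, kept at 37 C, 5% CO2; luminescence loss indicates inhibition.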
# % is scaled to controls: 0 for no effect and ±100 for the full control effect; potency is read from the fitted curve at half-maximal effect.
Compound,Potency,"activity change, negative = inhibition"
COC(=O)c1ccccc1NC(=O)Nc1ccc(Cl)cn1,inactive,
Cc1nn(-c2ccccc2)c(Cl)c1C(=O)NCc1cccs1,"inconclusive: 14.7 µM [inhibitor, single point]",
COc1ccc2c(=O)c(-c3ccccc3C)c(C)oc2c1,"inconclusive: 18.5 µM [inhibitor, single point]",
CCCCOCCCn1c(N)c(C(=O)OCCOC)c2nc3ccccc3nc21,active: 10.4 µM,
CC1(C)c2ccccc2N2CCC(=O)NC21/C=C/c1ccco1 (stereo not given),active: 10.4 µM,
Cc1oc(-c2ccccc2F)nc1CS(=O)CC(=O)NCc1ccc2c(c1)OCO2 (stereo not given),inactive,
Cc1cc(C(C)(C)C)oc1C(=O)N(CC(=O)NC1CCCC1)c1ccc(F)cc1,"inconclusive: 16.5 µM [inhibitor, partial curve, poor fit]",
CCOc1ccc(S(=O)(=O)NCCc2cn3ccccc3n2)cc1,"inconclusive: 2.08 µM [inhibitor, partial curve, poor fit]",
Cc1cccn2c(CN3CCCC(c4ccccc4)C3)c(C(=O)N3CCOCC3)nc12 (stereo not given),inactive,
COc1cc(OC)cc(C(=O)N2CCC(n3c(C)nc4cc(F)ccc43)CC2)c1,active: 13.1 µM,
C=CCn1c(COC)nnc1SCC(=O)c1ccc(F)cc1,inactive,
CCc1ccc(OCC(=O)Nc2ccc(S(=O)(=O)Nc3cc(C)on3)cc2)c(Br)c1,inactive,
Cc1cc2c(c(=O)n1Cc1ccc3c(c1)OCO3)C(c1cccnc1)C(C#N)=C(N)O2 (stereo not given),,inactive: -11.8% [at 5.75 µM]
CCc1[nH]nc(C(=O)N2CCCC(CNS(=O)(=O)c3cccs3)C2)c1C (stereo not given),"inconclusive: 4.15 µM [inhibitor, full curve]",
COc1ccc(-n2nc(C(=O)NCC(=O)Nc3cc(OC)ccc3OC)c3ccccc3c2=O)cc1,"inconclusive: 18.5 µM [inhibitor, partial curve, poor fit]",
CC(NC(=O)/C=C/c1ccco1)c1nc2ccccc2n1Cc1c(Cl)cccc1Cl (stereo not given),"inconclusive: 2.08 µM [inhibitor, full curve]",
Cn1cnc([N+](=O)[O-])c1Sc1ncnc2nc[nH]c12,"inconclusive: 19 µM [inhibitor, single point] and inconclusive: 18.5 µM [inhibitor, partial curve, poor fit]",
O=C(NCC(c1ccco1)N1CCCC1)c1cc2ccccc2s1 (stereo not given),active: 4.15 µM,
O=C(CSc1cccc[n+]1[O-])Nc1cc([N+](=O)[O-])ccc1Cl,inactive,
Cc1ccc(NC(=S)N(CCN(C)C)Cc2cc3cc(C)cc(C)c3[nH]c2=O)cc1,inactive,

# — PubChem BioAssay AID504834 (National Center for Advancing Translational Sciences (NCATS), 2011)
